Experimental findings from article PMC5568431 are described below.

Test [1] concerns the target T1, Mic10 (S. cerevisiae (endogenous in isolated yeast mitochondria)) (UniProt Q96VH5).
T1 sequence: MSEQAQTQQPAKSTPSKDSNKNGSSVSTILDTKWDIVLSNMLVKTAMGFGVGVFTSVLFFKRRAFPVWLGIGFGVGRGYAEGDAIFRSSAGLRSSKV
The test is described as follows: co-IP; WT, Δmic10 and Δmic27 mitochondria solubilized with digitonin (4 g/g) in 50 mM NaCl, 50 mM imidazole/HCl pH 7, 1 mM EDTA; affinity purified anti-Mic10 or anti-Mic27 antibody on protein A Sepharose CL-4B; pre-immune serum and deletion strains as negative controls; Western blot. (Immunoblotting shows a protein as a band on a membrane.)

In test [2] the target is T2, Mic27 (S. cerevisiae (endogenous in isolated yeast mitochondria)) (UniProt P50945).
T2 sequence: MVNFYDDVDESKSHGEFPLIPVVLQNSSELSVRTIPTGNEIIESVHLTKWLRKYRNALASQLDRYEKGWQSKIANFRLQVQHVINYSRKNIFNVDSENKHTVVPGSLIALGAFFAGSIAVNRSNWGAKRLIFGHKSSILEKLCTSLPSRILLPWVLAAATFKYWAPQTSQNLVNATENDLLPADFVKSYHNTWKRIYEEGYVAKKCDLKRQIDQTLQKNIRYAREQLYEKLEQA
Described as above.

The target of test [3] is T2, Mic27 (S. cerevisiae (endogenous in isolated yeast mitochondria)). The test is described as follows: cross-linking + co-IP; WT or Δmic27 mitochondria treated or not with MBS, solubilized with digitonin (4 g/g), immunoprecipitation with purified anti-Mic27 antibody, Western blot.
Test [4] shares this target. Briefly: cross-linking; isolated mitochondria (WT and deletion strains, among them Δmic27, Δmic10, Δsu e) in 0.6 M sorbitol, 20 mM HEPES pH 7.4, 400 μM MBS for 30 minutes, stopped with 100 mM glycine pH 8; DMSO as negative control; SDS-PAGE and Western blotting.
Test [5] deals with T1, Mic10 (S. cerevisiae (endogenous in isolated yeast mitochondria)). Described as above.

No constants are given. Whether binding was seen depends on the method and setting. Binding seen in cells or lysates may run through a third protein. Some results given as binding are weak or reduced against the parent protein; the word gives no strength.

B1: F1FO-ATP synthase subunit γ (protein, UniProt P38077 34-311)
chain: ATLKEVEMRLKSIKNIEKITKTMKIVASTRLSKAEKAKISAKKMDEAEQLFYKNAETKNLDVEATETGAPKELIVAITSDKGLCGSIHSQLAKAVRRHLNDQPNADIVTIGDKIKMQLLRTHPNNIKLSINGIGKDAPTFQESALIADKLLSVMKAGTYPKISIFYNDPVSSLSFEPSEKPIFNAKTIEQSPSFGKFEIDTDANVPRDLFEYTLANQMLTAMAQGYAAEISARRNAMDNASKNAGDMINRYSILYNRTRQAVITNELVDIITGASSLG
As to B1, the binding result in test [1] and in test [2] was “binds” each time.

B2: Mic26 (protein, UniProt P50087 1-233)
chain: MTKDFYRQLDPVEEKIVPPENAIVISSEAKEATVNEKEAKQGVLSQRVMKYIGENELVDGISVRDPDYLKRFFNERRKQFSAKWDKVTNKIDDIAGRYYAREESFTSTIASLHTDPNERLIPGLLSILVASMTGSVLARRRTWLLRATMPIILGSCCFAYAMPTTFRNTMGLIHNLEMNTFPHFTERQDRVWKETKRLSTASVQYYYDAKKWLNKDVEKTGNAIKNWTGVNVK
Consider B2, for which the binding entry in test [1] was “binds”.

B3: Mic60 (protein, UniProt P36112 18-540)
chain: ASINTGTTVASKKASHKFRNTLWTIALSATAFYAGGIIYSQKNDKFGDFFSNNVPFAEDLLETYEHYHDRPTLFLEDSWDGLKAKSNDLLSGLTGSSQTRRSNRENIEVKKILSLEPLNIETENSDPQLKEIIGSLNDLINSLNDSNLSIPESEFNSIKKSNQNMLTNLSQLNETLKEALSNYMIQRTSEVITELNTQYENSKREFEKNLQKNLLQEVDEFKENLTKQKDKELEEKLKANEELLQAKHANEVGLLSITQVKEFNKIIKDKIEKERNGRLAHLEEINSEVNDLSKSIDRSSKILSKNEALVQLTFQVDEIKSRINNNNLPDVNIDKELSRLKLLSNLLSTFNKKSCCDDGDCCSCKKGNKNEGKEGKISCKCKPKTNPPSLLSVALDELESTCSGKKILSNEQIYNRWNLLADDFKTASLLPPNSGILGQLTAKVFSLFLFTKTGNPSNATDFDSVYARVGDNLRVSNLNDAVEEVVSLKGWPHKVCESWIEDARRKLEVQRLVEILDCEIRTL
For the molecule B3, in test [1], the binding result was “binds”.

B4: Mic10 (protein, UniProt Q96VH5 1-97)
chain: MSEQAQTQQPAKSTPSKDSNKNGSSVSTILDTKWDIVLSNMLVKTAMGFGVGVFTSVLFFKRRAFPVWLGIGFGVGRGYAEGDAIFRSSAGLRSSKV
Turning to B4, the binding entry in test [3] and in test [4] was “binds” in each case.

B5: F1FO-ATP synthase subunit e (protein, UniProt P81449 1-96)
chain: MSTVNVLRYSALGLGLFFGFRNDMILKCNAKKKEEQAQYEEKLKLVEEAKKEYAKLHPVVTPKDVPANASFNLEDPNIDFERVILNAVESLKEAST
On to B5, for which the binding result is reported as “binds” in test [5], “no binding” in test [4], “binds” in test [1] and “no binding” in test [2].
